# Construct, isoform or probe ends are uncertain for at least one entry. Results from cells or extracts need not show a direct contact. For some assays here: Negatives hold for the conditions tested. For some assays here: Where a protein sequence is shown, tags need not be part of it.
# Chains of the proteins cited; added tags and fusions are not shown. Chains listed by the source or under a name are the forms on record and can include a tag or linker.
# FXRα1 + mouse RXRα, one chain, as listed by the source: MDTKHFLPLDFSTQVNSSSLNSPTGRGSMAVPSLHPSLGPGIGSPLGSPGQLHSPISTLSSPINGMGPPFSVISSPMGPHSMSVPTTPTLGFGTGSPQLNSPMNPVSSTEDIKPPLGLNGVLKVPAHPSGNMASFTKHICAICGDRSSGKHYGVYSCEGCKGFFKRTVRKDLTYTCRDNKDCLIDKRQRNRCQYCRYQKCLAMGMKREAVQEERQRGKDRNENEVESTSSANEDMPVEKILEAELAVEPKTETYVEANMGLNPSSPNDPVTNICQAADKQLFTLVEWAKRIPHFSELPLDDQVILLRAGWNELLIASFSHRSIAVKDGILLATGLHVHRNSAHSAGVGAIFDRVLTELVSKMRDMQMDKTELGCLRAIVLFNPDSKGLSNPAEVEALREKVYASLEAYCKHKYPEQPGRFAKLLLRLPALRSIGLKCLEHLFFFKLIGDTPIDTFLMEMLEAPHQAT
# Tests used:
# Experiment in all cases: EMSA
# FXRα1 + mouse RXRα = conditions: HeLa nuclear extract, RXRα co-expressed, band stronger than FXRα1 alone; 5 µg nuclear extract, 1 µg poly(dI-dC), EMSA buffer (composition not given), 30 min at 4 °C; 6% native PAGE in 0.5x TBE pH 8.3; protein in a lysate after overexpression; protein details: Flag and HA epitopes (pcDNA3.2); label: 32P
# [1] = test system: T1, FXRαse5 (exon 5-skipped FXRα) (Homo sapiens); conditions: 5 µg nuclear extract, 1 µg poly(dI-dC), EMSA buffer (composition not given), 30 min at 4 °C, 6% native PAGE in 0.5x TBE pH 8.3, protein in a lysate after overexpression, protein details: Flag and HA epitopes (pcDNA3.2), label: 32P
# T1 sequence (looked up, limits assumed): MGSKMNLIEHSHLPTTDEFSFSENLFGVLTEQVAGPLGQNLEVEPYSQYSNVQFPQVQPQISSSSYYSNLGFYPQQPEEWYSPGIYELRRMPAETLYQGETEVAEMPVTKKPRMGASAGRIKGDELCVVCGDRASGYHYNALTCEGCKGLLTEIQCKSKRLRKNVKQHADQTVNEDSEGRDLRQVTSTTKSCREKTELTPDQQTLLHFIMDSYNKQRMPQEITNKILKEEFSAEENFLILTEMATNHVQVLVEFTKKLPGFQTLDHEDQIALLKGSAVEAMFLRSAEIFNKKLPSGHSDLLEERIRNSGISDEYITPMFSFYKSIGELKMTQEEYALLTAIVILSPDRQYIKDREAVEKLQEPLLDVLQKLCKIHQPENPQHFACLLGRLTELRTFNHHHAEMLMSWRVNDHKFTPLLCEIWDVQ
# [2] = test system: FXRαse5 (exon 5-skipped FXRα) + mouse RXRα; conditions: HeLa nuclear extract, RXRα co-expressed; 5 µg nuclear extract, 1 µg poly(dI-dC), EMSA buffer (composition not given), 30 min at 4 °C; 6% native PAGE in 0.5x TBE pH 8.3; protein in a lysate after overexpression; protein details: Flag and HA epitopes (pcDNA3.2); label: 32P
sequence,measurement,setting,value
GATGGGCCAAGGTCAATGACCTCGGGG (double strand) [IR-1 consensus FXRE],binding result,FXRα1 + mouse RXRα,binds
same,binding result,"[1]; HeLa nuclear extract, no co-transfected RXRα",no binding
same,binding result,"[1]; HepG2 nuclear extract, increasing FXRαse5 plasmid did not enhance or change the endogenous FXRα complex",no binding
same,binding result,[1]; cytoplasmic extract of HeLa,no binding
same,binding result,[2],no binding

# — article PMC11758954
